PubChem BioAssay AID1259405 – NCATS, 2018
Aim: 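Knock-downs that lift recombinant protein yield in hamster ovary cells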 (primary screen). Cells: Chinese hamster CHO-K1 ovary cells with stable secreted eGFP expression. Knock-down reagent: single siRNA against mouse genes, 0.8 pmol siRNA per well (2 µl of 400 nM stock). Duration: 3 days. Measurement: 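Per-well intracellular GFP measured by laser scanning cytometry, plus viability from ATP luminescence, each relative to plate median of non-targeting control wells, in %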. Scale: GFP, % of control: higher = more GFP per well, higher productivity; viability (ATP), % of control: higher = more viable cells (more ATP). Active means: 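Called active when intracellular GFP, relative to negative control, is at or above 120%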.
The deposit covers about 50,000 reagents; shown is a random part of them. Of all reagents, about 4,000 (8%) were called active. 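Mouse siRNA library applied to hamster cells; one well for each siRNA.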 The numbers tell different reagents against one gene apart. Reagent sequences are not shown.

The first 2 records, to show the layout:
Vmn2r-ps54 (GeneID 75835) #1 | GFP, % of control = 58.5; viability (ATP), % of control = 69.9; Call = inactive
Vmn2r-ps54 (GeneID 75835) #2 | GFP, % of control = 74.8; viability (ATP), % of control = 82; Call = inactive

The list itself, from the start:
Vmn2r-ps54 (GeneID 75835) #1 | GFP, % of control = 58.5; viability (ATP), % of control = 69.9; Call = inactive
Vmn2r-ps54 (GeneID 75835) #2 | GFP, % of control = 74.8; viability (ATP), % of control = 82; Call = inactive
Vmn2r-ps54 (GeneID 75835) #3 | GFP, % of control = 54.1; viability (ATP), % of control = 54.5; Call = inactive
Tuba1b (GeneID 22143) #1 | GFP, % of control = 94.9; viability (ATP), % of control = 93.9; Call = inactive
Tuba1b (GeneID 22143) #2 | GFP, % of control = 71.4; viability (ATP), % of control = 54.7; Call = inactive
Arpc3 (GeneID 56378) #1 | GFP, % of control = 58.4; viability (ATP), % of control = 69.1; Call = inactive
Arpc3 (GeneID 56378) #2 | GFP, % of control = 84.9; viability (ATP), % of control = 91.5; Call = inactive
C1s2 (GeneID 317677) #1 | GFP, % of control = 85.9; viability (ATP), % of control = 69.1; Call = inactive
C1s2 (GeneID 317677) #2 | GFP, % of control = 60.6; viability (ATP), % of control = 69; Call = inactive
C1s2 (GeneID 317677) #3 | GFP, % of control = 65.1; viability (ATP), % of control = 74.2; Call = inactive
Ikzf2 (GeneID 22779) #1 | GFP, % of control = 114; viability (ATP), % of control = 83.1; Call = inactive
Ikzf2 (GeneID 22779) #2 | GFP, % of control = 71; viability (ATP), % of control = 64.8; Call = inactive
Irf6 (GeneID 54139) #1 | GFP, % of control = 55.8; viability (ATP), % of control = 75.7; Call = inactive
Irf6 (GeneID 54139) #2 | GFP, % of control = 77.5; viability (ATP), % of control = 58.1; Call = inactive
Irf6 (GeneID 54139) #3 | GFP, % of control = 71.9; viability (ATP), % of control = 85.1; Call = inactive
Ppp1r1a (GeneID 58200) #1 | GFP, % of control = 80.2; viability (ATP), % of control = 39.8; Call = inactive
Ppp1r1a (GeneID 58200) #2 | GFP, % of control = 96.8; viability (ATP), % of control = 76.4; Call = inactive
Ppp1r1a (GeneID 58200) #3 | GFP, % of control = 113; viability (ATP), % of control = 70.7; Call = inactive
Kcnc2 (GeneID 268345) #1 | GFP, % of control = 103; viability (ATP), % of control = 84.4; Call = inactive
Kcnc2 (GeneID 268345) #2 | GFP, % of control = 70.1; viability (ATP), % of control = 38.7; Call = inactive
Kcnc2 (GeneID 268345) #3 | GFP, % of control = 85.1; viability (ATP), % of control = 63.3; Call = inactive
Timd6 (GeneID 407814) #1 | GFP, % of control = 92.8; viability (ATP), % of control = 32.1; Call = inactive
Timd6 (GeneID 407814) #2 | GFP, % of control = 73.9; viability (ATP), % of control = 82.5; Call = inactive
Timd6 (GeneID 407814) #3 | GFP, % of control = 69.3; viability (ATP), % of control = 65.1; Call = inactive
Baz2b (GeneID 407823) #1 | GFP, % of control = 119; viability (ATP), % of control = 111; Call = inactive
Baz2b (GeneID 407823) #2 | GFP, % of control = 114; viability (ATP), % of control = 167; Call = inactive
Baz2b (GeneID 407823) #3 | GFP, % of control = 93.1; viability (ATP), % of control = 105; Call = inactive
